Results from patent US20210060121A1, “NOVEL ANTIBIOTICS AND METHODS OF USING THEM” (priority 2018, published 2021).
Some entries share one result that the patent states for a list of compounds. Some compounds share one range, which may span the group rather than tell each member.

System: MRSA, SA, Streptococcus faecalis and Enterococcus strains
Test: MIC, text summary over all strains of Table 2
Assay type: cell-based
Settings: Table 2 strains; from MICs

Structure (SMILES): CC[C@@H](C)[C@@H](NC(=O)[C@@H](CCC(N)=O)NC(=O)[C@H](CO)NC(=O)[C@@H](NC(=O)[C@@H](Cc1ccccc1)NC)[C@@H](C)CC)C(=O)N[C@H](C(=O)N[C@@H](CO)C(=O)N[C@H]1C(=O)N[C@@H](C)C(=O)N[C@@H](C2CCCCC2)C(=O)N[C@@H]([C@@H](C)CC)C(=O)N[C@H]1C)[C@@H](C)CC [T83]
- Activities, times higher than teixobactin: 2-4 times

Structure (SMILES): CC[C@@H](C)[C@@H](NC(=O)[C@@H](CCC(N)=O)NC(=O)[C@H](CO)NC(=O)[C@@H](NC(=O)[C@@H](Cc1ccccc1)NC)[C@@H](C)CC)C(=O)N[C@H](C(=O)N[C@@H](CO)C(=O)N[C@H]1C(=O)N[C@@H](C)C(=O)N[C@@H]([C@@H](C)CC)C(=O)N[C@@H]([C@@H](C)CC)C(=O)N[C@H]1C)[C@@H](C)CC [T84]
- Activities, times higher than teixobactin: 2-4 times

Structure (SMILES): CCC[C@@H]1NC(=O)[C@H](C)NC(=O)[C@H](NC(=O)[C@H](CO)NC(=O)[C@@H](NC(=O)[C@H](NC(=O)[C@@H](CCC(N)=O)NC(=O)[C@H](CO)NC(=O)[C@@H](NC(=O)[C@@H](Cc2ccccc2)NC)[C@@H](C)CC)[C@H](C)CC)[C@@H](C)CC)[C@H](C)NC(=O)[C@H]([C@@H](C)CC)NC1=O [T85]
- Activities, times higher than teixobactin: 2-4 times

Structure (SMILES): CC[C@@H](C)[C@@H](NC(=O)[C@@H](CCC(N)=O)NC(=O)[C@H](CO)NC(=O)[C@@H](NC(=O)[C@@H](Cc1ccccc1)NC)[C@@H](C)CC)C(=O)N[C@H](C(=O)N[C@@H](CO)C(=O)N[C@H]1C(=O)N[C@@H](C)C(=O)N[C@@H](CCSC)C(=O)N[C@@H]([C@@H](C)CC)C(=O)N[C@H]1C)[C@@H](C)CC [T86]
- Activities, times higher than teixobactin: 2-4 times

Structure (SMILES): CC[C@@H](C)[C@@H](NC(=O)[C@@H](CCC(N)=O)NC(=O)[C@H](CCCNC(=N)N)NC(=O)[C@@H](NC(=O)[C@@H](Cc1ccccc1)NC)[C@@H](C)CC)C(=O)N[C@H](C(=O)N[C@@H](CO)C(=O)N[C@H]1C(=O)N[C@@H](C)C(=O)N[C@@H](C2CCCCC2)C(=O)N[C@@H]([C@@H](C)CC)C(=O)O[C@H]1C)[C@@H](C)CC [T87]
- Activities, times higher than teixobactin: 2-4 times
